Measured values reported in patent EP2123670B1.
No constants are given. Whether binding was seen depends on the method and setting. Some entries that bind do so weakly or less than the wild type.

By UniProt entry, the sequences of proteins in these tests, tags left out. Where a name states a change or a piece, a line headed by the entry shows the natural chain unless it says otherwise. Residues count along the entry.
UniProt P00747, residues 97-810: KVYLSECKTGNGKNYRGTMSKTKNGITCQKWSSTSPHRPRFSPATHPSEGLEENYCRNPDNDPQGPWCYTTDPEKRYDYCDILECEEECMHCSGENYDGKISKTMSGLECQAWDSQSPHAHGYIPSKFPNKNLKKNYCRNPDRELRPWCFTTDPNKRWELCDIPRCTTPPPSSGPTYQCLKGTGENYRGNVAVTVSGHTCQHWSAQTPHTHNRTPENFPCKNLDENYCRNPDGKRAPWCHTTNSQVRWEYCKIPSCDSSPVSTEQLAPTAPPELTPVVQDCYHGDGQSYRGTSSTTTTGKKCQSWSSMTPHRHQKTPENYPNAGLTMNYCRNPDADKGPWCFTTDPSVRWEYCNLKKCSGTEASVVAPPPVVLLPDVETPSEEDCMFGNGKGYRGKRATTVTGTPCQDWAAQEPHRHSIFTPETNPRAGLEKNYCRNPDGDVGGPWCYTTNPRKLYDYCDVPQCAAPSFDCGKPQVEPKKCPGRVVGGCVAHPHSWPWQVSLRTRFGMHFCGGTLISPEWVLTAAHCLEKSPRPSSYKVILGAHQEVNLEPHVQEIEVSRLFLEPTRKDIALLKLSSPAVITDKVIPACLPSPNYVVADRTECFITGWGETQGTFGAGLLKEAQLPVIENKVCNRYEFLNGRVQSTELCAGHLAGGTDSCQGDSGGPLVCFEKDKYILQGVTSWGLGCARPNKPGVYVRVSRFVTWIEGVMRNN
UniProt Q9GP15: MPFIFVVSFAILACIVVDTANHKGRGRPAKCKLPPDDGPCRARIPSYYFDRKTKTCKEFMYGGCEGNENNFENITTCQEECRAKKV

Tests used:
plasmin [1] = target: plasmin (UniProt P00747); assay: SPR, GST immobilised (about 1000 RU) as negative control, plasmin injected
plasmin [2] = target: plasmin (UniProt P00747); assay: SPR, Ir-CPI immobilised
plasmin [3] = target: plasmin (UniProt P00747); assay: SPR, Ir-CPI immobilised at 1500 RU, factor injected at 100 nM

Substance: GST protein (from UniProt P08515 1-218) (enzyme)
- binding (plasmin [1]): binds

Substance: Ir-CPI (from UniProt Q9GP15 20-86)
- binding (plasmin [2]): binds
- binding (plasmin [3]): binds
